The other results are listed elsewhere or left out. The main result of the screen is listed elsewhere. These columns were measured beside it and carry no call. The list favours compounds with an active or inconclusive main result. Potencies come from curve fits of mixed quality, noted in brackets.
Assay: qHTS Assay for Lipid Storage Modulators in Drosophila S3 Cells;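 on cell number change: cells counted by Cell Tracker Red CMTPX staining in the red channel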
Conditions: BODIPY lipid droplet fluorescence, 18-24 h; for cell number change: measured here: cell count max response, cells fed with added oleic acid
Outline: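 Laser-scanning cytometry quantifies lipid droplet accumulation (500–530 nm total intensity; droplet/cell object ratio) in oleic acid-fed (400 uM added) Drosophila S3 cells treated with a concentration series. 20 uM Triacsin C defined 100% inhibition.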

[1] = measured here: lipid fluorescence (Fed channel) AC50, cells fed with added oleic acid
[2] = measured here: cell number channel AC50, cells fed with added oleic acid

Row | Compound | cell number change | AC50 [1] | AC50 [2]
1 | CC1=C(C(=O)OCCCCCl)C(c2cc3c(cc2Br)OCO3)NC(=O)N1 (centres undefined) | -1.09% |  | 
2 | COc1cccc(N2CCN(C(=S)NCc3ccco3)CC2)c1 | 21.6% | 29.1 µM [rising, single point] | 
3 | O=C(Nc1nccs1)C1CCN(S(=O)(=O)c2ccc(Cl)c(C(F)(F)F)c2)CC1 | 93.5% | 2.91 µM [rising, partial curve] | 13 µM [rising, partial curve]
4 | CCc1nnc(NC(=O)c2ccc(-c3cccc(C(F)(F)F)c3)o2)s1 |  | 29.1 µM [rising, single point] | 
5 | O=C(Cc1ccsc1)NNC(=O)c1ccc(F)cc1 | 38.9% |  | 29.1 µM [rising, single point]
6 | CC(=O)N1CC2(C)CN(C(C)=O)CC(C)(C1)C2 | -45.6% | 3.66 µM [falling, full curve] | 23.1 µM [falling, single point]
7 | COc1ccccc1N1CCN(C2CCCN(C(=O)CN3CCCCC3=O)C2)CC1 (centres undefined) | 6.93% |  | 
8 | COC(=O)c1ccc(/C=N/Nc2nc(-c3ccc(Cl)cc3Cl)cs2)cc1 | 9.87% | 6.51 µM [falling, single point] | 
9 | NS(=O)(=O)c1ccc(CNC(=S)NC2CCCC2)cc1 | -5.54% |  | 
10 | Cc1nn(C)c2nc(-c3cccs3)cc(C(F)(F)F)c12 | -3% | 3.26 µM [rising, full curve, poor fit] | 
11 | Cc1ccc(-c2nn(-c3ccccc3)c3[nH]c(=O)c(CNCc4ccccc4)cc23)cc1 | -81.4% | 29.1 µM [falling, single point] | 29.1 µM [falling, single point]
12 | Cc1c(S(=O)(=O)NC(C)c2ccccc2)c(=O)n(C)c(=O)n1C (centres undefined) | -1.76% |  | 
13 | CC1CCCC(NC(=O)c2cccs2)C1C (centres undefined) | -24% | 0.206 µM [falling, full curve, poor fit] | 
14 | CC1CCN(C(=O)COC(=O)CCC(=O)c2cccs2)CC1 | 4.38% | 0.82 µM [rising, full curve] | 
15 | CCOC(=O)C1CCN(S(=O)(=O)c2ccc3c(c2)NC(=O)C(C)C(=O)N3)CC1 (centres undefined) | -26.8% | 0.58 µM [falling, full curve] | 
16 | NS(=O)(=O)c1ccc(CCNCc2ccccc2OCc2ccc(Cl)cc2)cc1 | -11.4% |  | 
17 | CCOC(=O)C1=C(N)Oc2cc(C)n(C)c(=O)c2C1c1ccncc1 (centres undefined) | 32.3% |  | 9.2 µM [rising, partial curve, poor fit]
18 | Cc1c(Cl)c(=O)oc2cc(OC(C)C)ccc12 | -26.7% | 6.51 µM [rising, single point] | 2.59 µM [rising, partial curve, poor fit]
19 | CN(C)c1ncc(S(=O)(=O)c2ccc(Cl)cc2)c(-c2ccccc2)n1 | -18.9% |  | 
20 | CC12CCC(C(=O)N(c3cccc(Cl)c3)C1=O)C2(C)C (centres undefined) | -39.4% |  | 4.11 µM [falling, full curve]

Row | Compound | cell number change | AC50 [1] | AC50 [2]
21 | COCCn1c(Cc2ccccc2)nnc1SCC(=O)N1CCCCC1C (centres undefined) | 6.76% | 1.64 µM [falling, partial curve] | 
22 | CC1(c2ccccc2)NC(=O)N(CC(=O)Nc2ccc(Cl)c(S(=O)(=O)N3CCCCC3)c2)C1=O (centres undefined) | 22.7% |  | 0.731 µM [rising, full curve]
23 | N#CC1=C(N)N(c2ccc(F)cc2)C2=C(C1c1ccc(O)cc1)S(=O)(=O)CC2 (centres undefined) | 7.59% | 0.517 µM [falling, single point] | 
24 | Cc1coc2cc3oc(=O)c(CC(=O)N4C[C@H]5C[C@@H](C4)c4cccc(=O)n4C5)c(C)c3cc12 | 17.5% | 6.51 µM [falling, single point] | 
25 | COc1cc(CN2CC(=O)N(c3ccccc3Cl)C2=S)cc(OC)c1OC | -50% |  | 29.1 µM [falling, single point]
26 | CCOc1ccc(-c2noc(CCCC(=O)NCC3CCCO3)n2)cc1OC (centres undefined) | -18.3% | 23.1 µM [falling, single point] | 
27 | CN1/C(=C\C(=O)COC(=O)c2ccc(O)c(O)c2)C(C)(C)c2ccccc21 | -33.8% | 0.116 µM [falling, full curve, poor fit] | 4.61 µM [falling, full curve, poor fit]
28 | CCOc1cc(/C=N/NS(=O)(=O)c2ccccc2)ccc1OS(=O)(=O)c1ccc(C)cc1 | 58.5% | 20.6 µM [rising, single point] | 16.4 µM [rising, single point]
29 | COc1ccc(CCC(=O)Nc2cc(S(=O)(=O)N3CCOCC3)ccc2OC(C)C)cc1 | 4.82% | 6.51 µM [rising, single point] | 
30 | CC(C)[C@H](NC(=O)N1CC(=O)Nc2ccccc21)C(=O)N1CCC[C@H]1C(=O)O | 29.1% |  | 2.06 µM [rising, full curve, poor fit]
31 | O=C(Nc1ccccc1Cl)c1cc(=O)c2ccccc2o1 | -15.7% |  | 
32 | COc1ccc2cc3cc(C(=O)NCCc4ccc(OC)c(OC)c4)oc3nc2c1 | -56.8% | 18.4 µM [falling, partial curve] | 14.6 µM [falling, partial curve]
33 | COc1cc(C2Nc3cccc4cccc(c34)N2)cc(OC)c1OC(C)=O | -34.8% | 5.8 µM [falling, full curve] | 5.8 µM [falling, full curve, poor fit]
34 | O=C(Cn1ccc(NC(=O)OCc2ccccc2)nc1=O)NCCCn1ccnc1 | -19.4% | 29.1 µM [falling, single point] | 
35 | Cc1cccc(-n2c(Cc3cc(=O)[nH]c(=O)[nH]3)nnc2SCC(=O)NCC2CCCO2)c1 (centres undefined) | -12.7% |  | 
36 | O=[N+]([O-])c1cc([N+](=O)[O-])c(Oc2cc(F)cc(F)c2F)cc1NN1CCCCC1 | 15% | 29.1 µM [rising, single point] | 
37 | Cc1ccc(-c2nc3cc(Br)cnc3nc2-c2ccc(C)cc2)cc1 | 7.17% | 0.731 µM [rising, full curve, poor fit] | 
38 | CCC(=O)Nc1cccc(NC(=O)c2ccc3c(c2)OCO3)c1 |  | 2.06 µM [rising, partial curve] | 
39 | Cc1nc(Nc2ccc3c(c2)OCO3)c2oc3ccccc3c2n1 | -22.1% | 0.651 µM [falling, single point] | 
40 | CCCn1nc(C(=O)NNC(=O)c2cc(S(=O)(=O)NC)ccc2Br)c2ccccc2c1=O |  |  | 6.51 µM [rising, single point]

Filtered by structure: the compounds so far with an NH in an aromatic ring
Row | Compound | cell number change | AC50 [1] | AC50 [2]
11 | Cc1ccc(-c2nn(-c3ccccc3)c3[nH]c(=O)c(CNCc4ccccc4)cc23)cc1 | -81.4% | 29.1 µM [falling, single point] | 29.1 µM [falling, single point]
35 | Cc1cccc(-n2c(Cc3cc(=O)[nH]c(=O)[nH]3)nnc2SCC(=O)NCC2CCCO2)c1 (centres undefined) | -12.7% |  | 

Remaining list, next part

Row | Compound | cell number change | AC50 [1] | AC50 [2]
41 | CC(C)N1CCN(Cc2ccc(C#CCCO)cc2)CC1CCO (centres undefined) | 7.38% |  | 
42 | COc1cccc(CN(C)CC(=O)Nc2cc(S(=O)(=O)N3CCCC3)ccc2Cl)c1OC | 1.61% |  | 
43 | O=C(CCn1c(=O)c2cccn2c2cccnc21)N1CCN(c2cccc(Cl)c2)CC1 | -23% |  | 0.231 µM [falling, full curve, poor fit]
44 | CC1=Cc2ccccc2C(C#N)N1C(=O)c1ccccc1 (centres undefined) | 4.83% | 2.59 µM [rising, full curve] | 
45 | CN1C(=O)Cc2cc(S(=O)(=O)NCCc3ccccc3)ccc21 | 19.7% |  | 
46 | COc1cnc(-c2ccccc2)nc1Oc1ccc(C(C)(C)C)cc1 | -39% | 20.6 µM [falling, single point] | 18.4 µM [falling, partial curve]
47 | COc1ccc2[nH]c(=O)c(CN(C(C)=O)c3cccc(C)c3)cc2c1 | 10% | 0.116 µM [rising, single point] | 
48 | Cc1ccc(Cl)cc1N1CCN(C(=O)Cc2c(C(=O)O)[nH]c3ccc(Cl)cc23)CC1 | -15.6% | 0.092 µM [falling, full curve, poor fit] | 
49 | CCN(C(=O)COC(=O)/C=C/c1ccc(C)o1)c1c(N)n(Cc2ccccc2)c(=O)[nH]c1=O | -3.25% | 0.731 µM [falling, single point] | 
50 | Cc1n[nH]c(C)c1Sc1ccccc1[N+](=O)[O-] | 22.6% | 6.51 µM [rising, single point] | 0.58 µM [rising, single point]
51 | Cc1cc([N+](=O)[O-])nn1Cc1noc(C(=O)NCc2ccc3c(c2)OCO3)n1 | 16.1% | 29.1 µM [rising, single point] | 
52 | CCn1c(SCC(=O)NC2CCCC2)nc2c1c(=O)n(C)c(=O)n2C | 7.39% | 6.51 µM [falling, single point] | 
53 | COc1ccc2c(c1OC)C(=O)N1c3ccccc3C(=O)N(c3ccccc3F)C21 (centres undefined) | -156% |  | 18.4 µM [falling, partial curve]
54 | Cc1nn(C)c(=O)n1-c1ccccc1 |  | 0.103 µM [falling, full curve, poor fit] | 0.0231 µM [falling, full curve, poor fit]
55 | CC(NC(=O)c1cc(COc2c(F)cccc2F)on1)c1cnn(-c2ccccc2)c1 (centres undefined) | -63.1% |  | 0.92 µM [falling, full curve]
56 | Clc1nc(Nc2ccc(N3CCOCC3)cc2)c2ccccc2n1 | -11.8% | 23.1 µM [falling, partial curve, poor fit] | 
57 | O=S(=O)(c1ccc2nc(COc3ccc(Cl)cc3Cl)[nH]c2c1)N1CCOCC1 | 17.3% | 14.6 µM [falling, partial curve] | 
58 | O=C(c1ccc(N2CCCC2=O)cc1)N1CCN(c2ccccc2)CC1 | 27.7% | 20.6 µM [rising, partial curve, poor fit] | 
59 | CCCCNC(=O)CCCCCn1c(=O)[nH]c2cc(C(=O)OC)ccc2c1=O | -23.1% | 0.82 µM [falling, full curve, poor fit] | 

Reference: PubChem BioAssay AID2685 (National Center for Advancing Translational Sciences (NCATS), 2010)
